In publication PMC8975821:
No constants are given. Whether binding was seen depends on the method and setting. For part of these data: In cells and extracts the contact can be indirect. Some binding calls cover weakened binding; strength is not graded here. For part of these data: Where a sequence is shown, tags or fusion partners need not be part of it.

Amino acid sequences for entries named in this document (tags omitted).
UniProt P36873: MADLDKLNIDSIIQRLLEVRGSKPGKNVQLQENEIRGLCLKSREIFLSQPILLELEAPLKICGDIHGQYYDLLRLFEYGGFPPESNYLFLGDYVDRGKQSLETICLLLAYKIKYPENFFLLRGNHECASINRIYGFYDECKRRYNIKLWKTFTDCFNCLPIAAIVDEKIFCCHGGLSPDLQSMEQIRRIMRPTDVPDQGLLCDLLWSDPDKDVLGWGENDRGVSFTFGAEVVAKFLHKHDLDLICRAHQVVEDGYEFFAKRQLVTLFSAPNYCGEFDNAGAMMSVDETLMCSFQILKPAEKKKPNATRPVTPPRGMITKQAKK
UniProt Q6UXN9: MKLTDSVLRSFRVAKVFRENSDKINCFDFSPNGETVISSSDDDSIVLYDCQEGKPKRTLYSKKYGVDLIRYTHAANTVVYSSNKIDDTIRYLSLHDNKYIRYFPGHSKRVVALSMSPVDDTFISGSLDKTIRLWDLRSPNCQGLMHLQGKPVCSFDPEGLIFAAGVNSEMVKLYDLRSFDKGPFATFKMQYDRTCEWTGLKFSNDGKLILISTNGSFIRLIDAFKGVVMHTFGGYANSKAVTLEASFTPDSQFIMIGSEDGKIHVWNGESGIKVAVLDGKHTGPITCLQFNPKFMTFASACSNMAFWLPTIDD

How the values were obtained:
[1] = molecular target: T1, PNUTS (human (endogenous in K562)) (UniProt Q96QC0); assay: co-IP; antibody against PNUTS cross-linked to Dynabeads protein A; K562 nuclear extract of control and TOX4 KO cells; overnight at 4 °C; washed 5 times with BC-200 (200 mM KCl, 0.1% NP-40, pH 7.9); Western blot
T1 sequence: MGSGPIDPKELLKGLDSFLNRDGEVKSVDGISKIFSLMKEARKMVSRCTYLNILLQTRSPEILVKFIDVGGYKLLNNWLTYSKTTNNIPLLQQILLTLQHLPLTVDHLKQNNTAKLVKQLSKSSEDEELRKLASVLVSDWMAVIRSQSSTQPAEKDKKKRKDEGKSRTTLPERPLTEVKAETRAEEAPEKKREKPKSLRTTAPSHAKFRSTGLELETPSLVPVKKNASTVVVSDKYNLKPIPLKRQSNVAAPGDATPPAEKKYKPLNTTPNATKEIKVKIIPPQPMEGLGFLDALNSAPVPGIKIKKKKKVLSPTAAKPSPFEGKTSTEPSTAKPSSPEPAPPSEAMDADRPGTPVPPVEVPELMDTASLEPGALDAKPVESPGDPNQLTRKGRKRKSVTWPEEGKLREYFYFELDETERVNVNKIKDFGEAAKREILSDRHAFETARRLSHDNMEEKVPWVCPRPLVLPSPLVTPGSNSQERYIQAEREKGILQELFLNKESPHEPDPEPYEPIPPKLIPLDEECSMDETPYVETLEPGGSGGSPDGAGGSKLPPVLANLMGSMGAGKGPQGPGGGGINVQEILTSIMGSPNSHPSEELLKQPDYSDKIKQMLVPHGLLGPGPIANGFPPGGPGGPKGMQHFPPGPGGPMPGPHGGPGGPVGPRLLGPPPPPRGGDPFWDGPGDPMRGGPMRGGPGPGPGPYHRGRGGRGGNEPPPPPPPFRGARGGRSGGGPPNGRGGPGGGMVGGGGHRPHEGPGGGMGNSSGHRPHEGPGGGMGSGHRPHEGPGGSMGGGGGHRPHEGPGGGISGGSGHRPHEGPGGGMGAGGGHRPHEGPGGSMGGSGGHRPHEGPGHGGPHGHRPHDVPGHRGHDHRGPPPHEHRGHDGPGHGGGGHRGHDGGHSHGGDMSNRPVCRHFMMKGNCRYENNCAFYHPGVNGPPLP

3× Flag-tagged TOX4 = molecular target: T2, 3× Flag-tagged TOX4 (UniProt O94842); assay: co-IP; in vitro binding assay of individually purified TOX4 and PP1α, β or γ; PP1 co-immunoprecipitated with TOX4; Western blot, quantified by ImageJ; both purified
T2 sequence: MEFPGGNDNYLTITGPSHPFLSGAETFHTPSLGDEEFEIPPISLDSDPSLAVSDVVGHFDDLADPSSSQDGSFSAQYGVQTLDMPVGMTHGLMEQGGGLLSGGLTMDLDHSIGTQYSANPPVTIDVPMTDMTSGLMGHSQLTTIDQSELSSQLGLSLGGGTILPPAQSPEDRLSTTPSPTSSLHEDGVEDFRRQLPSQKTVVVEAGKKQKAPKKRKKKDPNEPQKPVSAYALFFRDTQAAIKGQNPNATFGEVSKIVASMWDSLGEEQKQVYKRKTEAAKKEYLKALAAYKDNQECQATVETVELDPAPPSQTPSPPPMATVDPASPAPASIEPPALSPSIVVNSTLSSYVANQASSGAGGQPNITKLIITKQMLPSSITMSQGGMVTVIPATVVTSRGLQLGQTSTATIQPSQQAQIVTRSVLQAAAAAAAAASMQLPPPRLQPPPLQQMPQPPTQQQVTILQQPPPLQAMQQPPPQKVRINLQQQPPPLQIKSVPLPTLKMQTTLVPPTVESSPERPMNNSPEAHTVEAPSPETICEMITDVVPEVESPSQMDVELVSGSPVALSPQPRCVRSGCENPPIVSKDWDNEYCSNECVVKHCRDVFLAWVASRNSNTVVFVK

Substance	binding [1]	binding (3× Flag-tagged TOX4)
PP1γ (endogenous) (from UniProt P36873 1-323) (enzyme)	binds	
WDR82 (from UniProt Q6UXN9 1-313)	binds	
His-tagged PP1γ (from UniProt P36873 1-323) (enzyme)		binds
